According to patent US20140018347A1, “BENZOXAZEPINES AS INHIBITORS OF mTOR AND METHODS OF THEIR USE AND MANUFACTURE” (Exelixis, Inc., priority 2010, published 2014):
Some entries share one result that the patent states for a list of compounds. For some assays here: At least one compound was matched to its structure with a doubt left.

Experiments:
PI3Kalpha = PI3Kalpha (Homo sapiens, UniProt P42336); assay: PI3K Biochemical Assays (PI3K-alpha assay); settings: ATP consumption, luciferase-luciferin; 1 μM ATP, 10 μM PIP2
Procedure: PI3Kn activity was measured as the percent of ATP consumed following the kinase reaction using luciferase-luciferin-coupled chemiluminescence. Reactions were conducted in 384-well white, medium binding microtiter plates (Greiner). Kinase reactions were initiated by combining test compounds, ATP, substrate (PIP2), and kinase in a 20 μL volume in a buffer solution. The standard PI3Kalpha assay buffer was composed 50 mM Tris, pH 7.5, 1 mM EGTA, 10 mM MgCl2, 1 mM DTT and 0.03% CHAPS. The standard assay concentrations for enzyme, ATP, and substrate were 3 nM, 1 μM, and 10 μM, respectively. The reaction mixture was incubated at ambient temperature for approximately 2 h. Following the kinase reaction, a 10 μL aliquot of luciferase-luciferin mix (Promega Kinase-Glo) was added and the chemiluminescence signal measured using a Victor2 or EnVision (Perkin Elmer). Total ATP consumption was limited to 40-60% and IC50 values of control compounds correlate well with literature references. Substituting PI3Kα with PI3Krβ, PI3Kγ, or PI3Kδ, the inhibitory activity of the compounds for the other isoforms of PI3K were measured. For the PI3Kβ and PI3Kδ assays, enzyme concentrations were 10 nM and 4 nM, respectively. For the PI3Kγ assay, enzyme concentration was 40 nM, the incubation time was 1 h, and the concentration of MgCl2 in the assay buffer was 5 mM.

mTORC1 = mTORC1 (Homo sapiens, UniProt P42345); assay: mTOR/GbL/Raptor (mTORC1) ELISA Assay; type: biochemical; settings: phosphorylation of 4E-BP1; 0.2 nM mTORC1, 10 μM ATP
Procedure: The measurement of mTORC1 enzyme activity was performed in an ELISA assay format following the phosphorylation of 4E-BP1 protein. All experiments were performed in the 384-well format. Generally, 0.5 μL DMSO containing varying concentrations of the test compound was mixed with 15 μL enzyme solution. Kinase reactions were initiated with the addition of 15 μL of substrates-containing solution. The assay conditions were as follows; 0.2 nM mTORC1, 10 μM ATP and 50 nM NHis-tagged 4E-BP1 in 20 mM Hepes, pH 7.2, 1 mM DTT, 50 mM NaCl, 10 mM MnCl2, 0.02 mg/mL BSA, 0.01% CHAPS, 50 mM β-glycerophosphate. Following an incubation of 120 minutes at ambient temperature, 20 μL of the reaction volume was transferred to a Ni-Chelate-coated 384-well plate. The binding step of the 4E-BP1 protein proceeded for 60 minutes, followed by washing 4 times each with 50 μL of Tris-buffered saline solution (TBS). Anti-phospho-4E-BP1 rabbit-IgG (20 μL, 1:5000) in 5% BSA-TBST (0.2% Tween-20 in TBS) was added and further incubated for 60 minutes. Incubation with a secondary HRP-tagged anti-IgG was similarly performed after washing off the primary antibody (4 washes of 50 μL). Following the final wash step with TBST, 20 μL of SuperSignal ELISA Femto (Pierce Biotechnology) was added and the luminescence measured using an EnVision plate reader.

| Compound | IC50 (PI3Kalpha) [nM] | IC50 (mTORC1) [nM] |
| --- | --- | --- |
| Cc1nc(CN(C)C)nc(N2CCOc3ccc(-c4cnc5sc(N)nc5c4)cc3C2)c1CC(C)C [Compound 36, 6-(4-{2-[(dimethylamino)methyl]-6-methyl-5-(2-methylpropyl)pyrimidin-4-yl}-2,3,4,5-tetrahydro-1,4-benzoxazepin-7-yl)[1,3]thiazolo[5,4-b]pyridin-2-amine] | ≤ 100 |  |
| Cc1nc(N)nc(N2CCOc3ccc(-c4cnc5sc(N)nc5c4)cc3C2)c1Cc1ccc(F)cc1 [Compound 91, 6-(4-{2-amino-5-[(4-fluorophenyl)methyl]-6-methyipyrimidin-4-yl}-2,3,4,5-tetrahydro-1,4-benzoxazepin-7-yl)[1,3]thiazolo[5,4-b]pyridin-2-amine] |  | ≤ 100 |
